# Assay results published in patent US7528132B2, “Kinase inhibitors” (Schering Corporation, priority 2005, dated 2009).
# By UniProt entry, the sequences of proteins in these tests, tags left out.
# UniProt P31749, whole entry: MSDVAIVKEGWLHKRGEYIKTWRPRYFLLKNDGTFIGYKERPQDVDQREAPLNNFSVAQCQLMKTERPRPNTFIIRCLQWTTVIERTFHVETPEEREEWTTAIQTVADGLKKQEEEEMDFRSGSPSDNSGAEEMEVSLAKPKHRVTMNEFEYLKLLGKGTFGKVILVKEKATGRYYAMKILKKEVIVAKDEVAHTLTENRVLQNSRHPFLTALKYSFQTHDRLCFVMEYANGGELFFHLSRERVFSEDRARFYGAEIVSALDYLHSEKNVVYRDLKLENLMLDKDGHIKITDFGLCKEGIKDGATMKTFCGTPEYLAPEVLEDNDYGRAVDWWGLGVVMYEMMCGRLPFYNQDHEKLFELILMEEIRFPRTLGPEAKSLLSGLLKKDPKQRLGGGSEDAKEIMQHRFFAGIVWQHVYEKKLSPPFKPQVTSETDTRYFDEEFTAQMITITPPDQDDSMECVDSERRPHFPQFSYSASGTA
# Target: Akt1 (Homo sapiens, UniProt P31749)
# Assay: Akt1 kinase assay (33P phosphorylation of biotinylated peptide, Flash plates)
# Assay type: biochemical
# Conditions: read-out: IC50 rating (AKT1 inhibition)
# Excerpt: The assay described below measures the phosphorylation of a biotinylated peptide by active recombinant Akt1 and other kinase isoforms. The biotinylated peptide contains a consensus sequence derived from Akt substrate Gsk3 (Glycogen synthase kinase 3). The ^33P-labeled peptide substrate was captured by streptavidin-coated Flash plates.
# Active recombinant Akt1 was expressed in Sf9 insect cells and purified as described by Kumar et al., Biochim. Biophys. Acta. Jun. 15, 2001, 1526(3), 257-268. Biotinylated peptide of the sequence Bio-ahx-RPRAASF was purchased from Syn Pep (Dublin, Calif., USA).
# Cloning and Expression of Human Akt1 Sf9 Cells
# Human Akt1 cDNA was amplified from a marathon-ready human lung cDNA library (Clonetech) using nested oligo primers as described below. […]
# Viral stocks were used to infect large scale Sf9 cells at a multiplicity of infection (MOI) of 2.5. […] Fractions were analyzed by electrophoresis on 10% denaturing polyacrylamide gels and fractions containing 85% pure protein band at 60 KDa were pooled and dialyzed against buffer C (20 mM Tris-HCl pH 7.5, 0.5 mM EDTA,-2 mM DTT, 145 mM NaCl, 0.1 mM sodium vanadate, 5 mM sodium fluoride, 10 mM, β-glycerophosphate and 20% glycerol). […] Protein concentrations were determined using BCA protein assay reagent A (Catalog #23228). […]
compound,measurement,value
CCC[C@@H]1CN(c2nc(-c3ccc4[nH]nc(C)c4c3)nnc2N)CCN1,IC50,100 to 1000 nM

# The match of structure and compound is tentative.
